PubChem BioAssay AID1259254, NCATS – 2017

Assay: 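Genome-wide screen for genes that prevent DNA re-replication in cancer cells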 (primary screen)
Cells: human HCT116 colorectal cancer cells
Reagents: single siRNA against human genes
Time to read-out: 3 days
Measurement: 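Nuclei stained with Hoechst and imaged; cell-cycle phase assigned by DNA content; G2 share scaled per plate, non-targeting siRNA 0%, GMNN siRNA 100%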
Direction: G2 robust z-score: higher = more G2 cells, more excess DNA replication
Active means: 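Active siRNAs have a G2 robust z of 5 or more median absolute deviations over the median, which in these data means about 38% or higher of GMNN control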
Shown is a random part of about 59,000 reagents. About 1,550 of all reagents (2.6%) were called active. 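G2 share is only a proxy for re-replication; each gene was hit by three separate siRNAs, and active genes were retested.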 Reagents against one gene are numbered here. Not all columns of the deposit are shown. Not given: the amount of reagent.

The first 3 records, ahead of the listing:
{"gene symbol":"CLVS1 (clavesin 1)","reagent":1,"G2 robust z-score":-0.716,"Outcome":"inactive"}
{"gene symbol":"CLVS1 (clavesin 1)","reagent":2,"G2 robust z-score":-0.0512,"Outcome":"inactive"}
{"gene symbol":"CLVS1 (clavesin 1)","reagent":3,"G2 robust z-score":-0.0306,"Outcome":"inactive"}

Results, from the first entry:
{"gene symbol":"CLVS1 (clavesin 1)","reagent":1,"G2 robust z-score":-0.716,"Outcome":"inactive"}
{"gene symbol":"CLVS1 (clavesin 1)","reagent":2,"G2 robust z-score":-0.0512,"Outcome":"inactive"}
{"gene symbol":"CLVS1 (clavesin 1)","reagent":3,"G2 robust z-score":-0.0306,"Outcome":"inactive"}
{"gene symbol":"HBD (hemoglobin subunit delta)","reagent":1,"G2 robust z-score":-0.289,"Outcome":"inactive"}
{"gene symbol":"HBD (hemoglobin subunit delta)","reagent":2,"G2 robust z-score":0.166,"Outcome":"inactive"}
{"gene symbol":"HBD (hemoglobin subunit delta)","reagent":3,"G2 robust z-score":-0.749,"Outcome":"inactive"}
{"gene symbol":"GUCD1 (guanylyl cyclase domain containing 1)","reagent":1,"G2 robust z-score":0.596,"Outcome":"inactive"}
{"gene symbol":"GUCD1 (guanylyl cyclase domain containing 1)","reagent":2,"G2 robust z-score":0.127,"Outcome":"inactive"}
{"gene symbol":"GUCD1 (guanylyl cyclase domain containing 1)","reagent":3,"G2 robust z-score":-0.629,"Outcome":"inactive"}
{"gene symbol":"SMIM48 (small integral membrane protein 48)","reagent":1,"G2 robust z-score":2.46,"Outcome":"inactive"}
{"gene symbol":"SMIM48 (small integral membrane protein 48)","reagent":2,"G2 robust z-score":3.36,"Outcome":"inactive"}
{"gene symbol":"SMIM48 (small integral membrane protein 48)","reagent":3,"G2 robust z-score":-0.713,"Outcome":"inactive"}
{"gene symbol":"ACP6 (acid phosphatase 6, lysophosphatidic)","reagent":1,"G2 robust z-score":-1.28,"Outcome":"inactive"}
{"gene symbol":"ACP6 (acid phosphatase 6, lysophosphatidic)","reagent":2,"G2 robust z-score":0.082,"Outcome":"inactive"}
{"gene symbol":"ACP6 (acid phosphatase 6, lysophosphatidic)","reagent":3,"G2 robust z-score":-0.606,"Outcome":"inactive"}
{"gene symbol":"LOC401410 (retired record)","reagent":1,"G2 robust z-score":-1.28,"Outcome":"inactive"}
{"gene symbol":"LOC401410 (retired record)","reagent":2,"G2 robust z-score":-0.764,"Outcome":"inactive"}
{"gene symbol":"LOC401410 (retired record)","reagent":3,"G2 robust z-score":2.58,"Outcome":"inactive"}
{"gene symbol":"CFHR3 (complement factor H related 3)","reagent":1,"G2 robust z-score":0.789,"Outcome":"inactive"}
{"gene symbol":"CFHR3 (complement factor H related 3)","reagent":2,"G2 robust z-score":-0.13,"Outcome":"inactive"}
{"gene symbol":"CFHR3 (complement factor H related 3)","reagent":3,"G2 robust z-score":0.0492,"Outcome":"inactive"}
{"gene symbol":"MUTYH (mutY DNA glycosylase)","reagent":1,"G2 robust z-score":0.566,"Outcome":"inactive"}
{"gene symbol":"MUTYH (mutY DNA glycosylase)","reagent":2,"G2 robust z-score":-0.628,"Outcome":"inactive"}
{"gene symbol":"MUTYH (mutY DNA glycosylase)","reagent":3,"G2 robust z-score":-1.02,"Outcome":"inactive"}
